# Measurements taken from the supplement of paper PMC10849652.
# Protein sequences, listed by entry. Tags and fused reporters are not part of them. Lines headed by an entry give the natural chain unless they say otherwise; changes in a name come on top.
# UniProt Q15021, whole entry, looked up: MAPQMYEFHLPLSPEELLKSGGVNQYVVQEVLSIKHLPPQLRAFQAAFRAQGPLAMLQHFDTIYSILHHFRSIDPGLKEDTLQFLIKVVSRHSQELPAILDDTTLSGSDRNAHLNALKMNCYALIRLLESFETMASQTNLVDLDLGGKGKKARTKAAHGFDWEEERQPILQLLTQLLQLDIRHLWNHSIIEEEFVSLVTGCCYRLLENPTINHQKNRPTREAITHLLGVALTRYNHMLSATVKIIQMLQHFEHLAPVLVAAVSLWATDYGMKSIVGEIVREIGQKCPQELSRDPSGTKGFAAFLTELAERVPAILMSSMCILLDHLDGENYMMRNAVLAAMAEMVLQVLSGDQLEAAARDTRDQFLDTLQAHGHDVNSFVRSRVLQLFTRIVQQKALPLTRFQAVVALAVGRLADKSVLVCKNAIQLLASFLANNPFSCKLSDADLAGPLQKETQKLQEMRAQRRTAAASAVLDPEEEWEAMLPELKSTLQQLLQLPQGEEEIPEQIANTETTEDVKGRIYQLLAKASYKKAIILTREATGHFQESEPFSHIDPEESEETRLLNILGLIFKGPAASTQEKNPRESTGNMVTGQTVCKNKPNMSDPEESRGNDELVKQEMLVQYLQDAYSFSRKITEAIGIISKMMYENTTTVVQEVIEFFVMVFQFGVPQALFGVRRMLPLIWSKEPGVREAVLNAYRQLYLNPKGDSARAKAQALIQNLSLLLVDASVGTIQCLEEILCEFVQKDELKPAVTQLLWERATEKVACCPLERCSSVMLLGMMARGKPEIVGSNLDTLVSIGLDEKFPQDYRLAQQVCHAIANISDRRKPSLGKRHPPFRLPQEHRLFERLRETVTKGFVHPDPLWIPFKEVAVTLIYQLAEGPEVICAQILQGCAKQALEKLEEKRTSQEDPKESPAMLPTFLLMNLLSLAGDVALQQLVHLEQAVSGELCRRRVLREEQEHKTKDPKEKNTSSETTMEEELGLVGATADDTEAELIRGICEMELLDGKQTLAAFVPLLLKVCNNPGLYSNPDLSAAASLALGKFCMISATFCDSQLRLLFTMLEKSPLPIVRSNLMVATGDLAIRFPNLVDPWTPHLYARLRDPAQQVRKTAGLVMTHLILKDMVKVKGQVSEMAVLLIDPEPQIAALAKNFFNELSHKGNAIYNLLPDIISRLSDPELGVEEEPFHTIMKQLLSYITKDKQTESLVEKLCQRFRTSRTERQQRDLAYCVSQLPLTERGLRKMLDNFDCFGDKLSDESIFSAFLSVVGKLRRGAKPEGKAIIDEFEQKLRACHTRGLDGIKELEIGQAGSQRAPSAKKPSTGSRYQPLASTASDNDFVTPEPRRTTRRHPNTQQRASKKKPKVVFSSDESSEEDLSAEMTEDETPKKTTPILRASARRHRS
# UniProt Q9BTX1: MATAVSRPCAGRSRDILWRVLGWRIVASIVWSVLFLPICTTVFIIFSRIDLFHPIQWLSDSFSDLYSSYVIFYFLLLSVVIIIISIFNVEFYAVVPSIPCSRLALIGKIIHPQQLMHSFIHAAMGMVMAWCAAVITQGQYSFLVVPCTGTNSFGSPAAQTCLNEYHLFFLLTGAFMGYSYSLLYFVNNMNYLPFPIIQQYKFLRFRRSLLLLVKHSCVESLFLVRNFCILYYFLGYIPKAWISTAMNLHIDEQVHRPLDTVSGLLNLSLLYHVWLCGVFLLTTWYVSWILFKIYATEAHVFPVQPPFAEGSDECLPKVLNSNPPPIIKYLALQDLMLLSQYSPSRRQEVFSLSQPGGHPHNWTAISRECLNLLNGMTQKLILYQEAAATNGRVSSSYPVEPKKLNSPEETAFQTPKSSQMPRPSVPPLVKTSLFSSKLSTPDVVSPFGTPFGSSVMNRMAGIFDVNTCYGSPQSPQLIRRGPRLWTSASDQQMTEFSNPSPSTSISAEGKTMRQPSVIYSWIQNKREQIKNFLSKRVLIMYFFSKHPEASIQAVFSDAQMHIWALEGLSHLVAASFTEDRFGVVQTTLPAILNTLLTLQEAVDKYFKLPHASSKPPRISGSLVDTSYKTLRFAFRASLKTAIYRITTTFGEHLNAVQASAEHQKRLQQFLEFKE
# UniProt Q9UBB6: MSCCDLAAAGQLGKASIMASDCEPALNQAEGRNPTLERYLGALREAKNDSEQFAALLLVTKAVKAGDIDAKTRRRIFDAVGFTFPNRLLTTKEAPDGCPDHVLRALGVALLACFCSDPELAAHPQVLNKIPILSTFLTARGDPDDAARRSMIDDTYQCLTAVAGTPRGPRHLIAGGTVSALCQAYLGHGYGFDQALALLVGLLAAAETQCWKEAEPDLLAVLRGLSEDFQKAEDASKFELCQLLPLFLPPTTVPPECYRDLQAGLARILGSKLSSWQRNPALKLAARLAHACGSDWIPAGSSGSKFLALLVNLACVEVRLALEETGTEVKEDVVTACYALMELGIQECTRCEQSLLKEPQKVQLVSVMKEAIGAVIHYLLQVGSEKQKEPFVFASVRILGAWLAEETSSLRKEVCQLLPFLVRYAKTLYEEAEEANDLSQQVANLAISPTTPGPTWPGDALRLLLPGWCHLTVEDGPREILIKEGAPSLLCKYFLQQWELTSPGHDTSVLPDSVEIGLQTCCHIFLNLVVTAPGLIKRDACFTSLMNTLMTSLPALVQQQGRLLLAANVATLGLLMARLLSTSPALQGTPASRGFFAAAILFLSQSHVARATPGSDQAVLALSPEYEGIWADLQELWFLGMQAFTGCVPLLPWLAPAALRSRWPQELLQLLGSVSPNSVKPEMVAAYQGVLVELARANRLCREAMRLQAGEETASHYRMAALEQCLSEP
# UniProt Q9Y5N5: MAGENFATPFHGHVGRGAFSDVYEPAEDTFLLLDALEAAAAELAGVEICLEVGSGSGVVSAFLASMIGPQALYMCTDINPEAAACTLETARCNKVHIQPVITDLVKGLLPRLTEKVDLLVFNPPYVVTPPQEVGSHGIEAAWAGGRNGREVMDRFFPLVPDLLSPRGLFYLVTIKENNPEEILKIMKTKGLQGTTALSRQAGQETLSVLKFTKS
# UniProt Q86XI2: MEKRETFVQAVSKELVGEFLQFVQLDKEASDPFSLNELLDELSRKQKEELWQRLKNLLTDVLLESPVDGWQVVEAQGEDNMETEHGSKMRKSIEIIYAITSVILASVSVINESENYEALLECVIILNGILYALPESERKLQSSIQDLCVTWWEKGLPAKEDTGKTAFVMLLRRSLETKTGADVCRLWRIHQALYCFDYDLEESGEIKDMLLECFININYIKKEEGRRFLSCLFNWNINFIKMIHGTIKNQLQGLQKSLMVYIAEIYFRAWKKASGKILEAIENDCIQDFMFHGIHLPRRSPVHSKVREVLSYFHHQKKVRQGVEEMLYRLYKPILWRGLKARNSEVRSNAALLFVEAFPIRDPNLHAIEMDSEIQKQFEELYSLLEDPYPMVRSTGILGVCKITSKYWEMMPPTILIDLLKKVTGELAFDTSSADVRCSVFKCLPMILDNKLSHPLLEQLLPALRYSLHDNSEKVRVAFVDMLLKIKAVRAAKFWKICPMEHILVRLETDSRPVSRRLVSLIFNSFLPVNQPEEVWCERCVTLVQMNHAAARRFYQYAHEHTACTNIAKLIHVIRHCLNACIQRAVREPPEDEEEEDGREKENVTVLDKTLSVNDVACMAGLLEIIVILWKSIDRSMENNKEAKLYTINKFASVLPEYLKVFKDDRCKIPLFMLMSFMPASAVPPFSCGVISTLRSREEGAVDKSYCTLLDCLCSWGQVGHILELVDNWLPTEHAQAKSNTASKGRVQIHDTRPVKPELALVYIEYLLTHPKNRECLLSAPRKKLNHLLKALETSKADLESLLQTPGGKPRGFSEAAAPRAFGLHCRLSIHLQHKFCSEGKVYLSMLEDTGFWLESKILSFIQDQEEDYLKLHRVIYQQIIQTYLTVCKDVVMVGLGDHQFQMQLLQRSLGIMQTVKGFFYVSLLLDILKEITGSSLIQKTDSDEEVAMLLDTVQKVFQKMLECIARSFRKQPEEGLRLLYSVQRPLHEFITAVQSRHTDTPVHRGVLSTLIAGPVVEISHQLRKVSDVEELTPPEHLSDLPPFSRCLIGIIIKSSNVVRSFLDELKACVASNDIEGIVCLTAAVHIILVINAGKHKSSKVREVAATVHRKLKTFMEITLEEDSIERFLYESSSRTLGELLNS
# UniProt O95298, whole entry, looked up: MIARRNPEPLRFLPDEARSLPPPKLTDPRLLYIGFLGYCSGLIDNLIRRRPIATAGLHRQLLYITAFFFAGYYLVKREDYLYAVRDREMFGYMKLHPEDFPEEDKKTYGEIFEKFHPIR
# UniProt Q9GZZ1: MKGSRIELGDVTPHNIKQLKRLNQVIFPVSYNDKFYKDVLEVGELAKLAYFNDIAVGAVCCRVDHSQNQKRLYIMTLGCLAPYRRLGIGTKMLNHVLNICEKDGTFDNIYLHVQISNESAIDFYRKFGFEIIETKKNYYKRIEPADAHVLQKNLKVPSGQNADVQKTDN
# UniProt Q8NHV4, whole entry, looked up: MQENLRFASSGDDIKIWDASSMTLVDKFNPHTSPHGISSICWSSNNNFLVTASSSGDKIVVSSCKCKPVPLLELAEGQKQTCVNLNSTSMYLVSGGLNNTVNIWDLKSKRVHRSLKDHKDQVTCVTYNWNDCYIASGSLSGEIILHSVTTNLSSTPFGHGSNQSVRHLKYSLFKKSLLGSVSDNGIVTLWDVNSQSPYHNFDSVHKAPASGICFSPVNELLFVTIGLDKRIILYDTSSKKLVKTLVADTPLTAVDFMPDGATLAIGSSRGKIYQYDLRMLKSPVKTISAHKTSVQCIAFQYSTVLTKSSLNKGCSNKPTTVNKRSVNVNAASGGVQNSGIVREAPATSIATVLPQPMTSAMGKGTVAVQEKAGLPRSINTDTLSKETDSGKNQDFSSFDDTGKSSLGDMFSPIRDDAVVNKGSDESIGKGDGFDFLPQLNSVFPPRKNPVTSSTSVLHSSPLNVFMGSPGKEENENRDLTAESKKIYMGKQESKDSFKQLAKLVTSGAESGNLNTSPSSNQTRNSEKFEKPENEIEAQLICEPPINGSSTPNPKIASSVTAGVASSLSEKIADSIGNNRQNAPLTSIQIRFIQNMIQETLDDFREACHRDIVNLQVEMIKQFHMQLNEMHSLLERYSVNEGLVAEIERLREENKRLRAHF
# UniProt Q86Y39, whole entry, looked up: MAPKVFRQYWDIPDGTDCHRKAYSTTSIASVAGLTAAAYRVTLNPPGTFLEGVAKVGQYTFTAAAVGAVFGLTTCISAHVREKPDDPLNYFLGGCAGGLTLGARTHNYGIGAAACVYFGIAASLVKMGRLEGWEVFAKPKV
# UniProt O43676, whole entry, looked up: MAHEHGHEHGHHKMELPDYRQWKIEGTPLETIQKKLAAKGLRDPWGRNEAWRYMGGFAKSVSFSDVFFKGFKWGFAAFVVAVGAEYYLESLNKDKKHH
# UniProt Q14CX7, whole entry, looked up: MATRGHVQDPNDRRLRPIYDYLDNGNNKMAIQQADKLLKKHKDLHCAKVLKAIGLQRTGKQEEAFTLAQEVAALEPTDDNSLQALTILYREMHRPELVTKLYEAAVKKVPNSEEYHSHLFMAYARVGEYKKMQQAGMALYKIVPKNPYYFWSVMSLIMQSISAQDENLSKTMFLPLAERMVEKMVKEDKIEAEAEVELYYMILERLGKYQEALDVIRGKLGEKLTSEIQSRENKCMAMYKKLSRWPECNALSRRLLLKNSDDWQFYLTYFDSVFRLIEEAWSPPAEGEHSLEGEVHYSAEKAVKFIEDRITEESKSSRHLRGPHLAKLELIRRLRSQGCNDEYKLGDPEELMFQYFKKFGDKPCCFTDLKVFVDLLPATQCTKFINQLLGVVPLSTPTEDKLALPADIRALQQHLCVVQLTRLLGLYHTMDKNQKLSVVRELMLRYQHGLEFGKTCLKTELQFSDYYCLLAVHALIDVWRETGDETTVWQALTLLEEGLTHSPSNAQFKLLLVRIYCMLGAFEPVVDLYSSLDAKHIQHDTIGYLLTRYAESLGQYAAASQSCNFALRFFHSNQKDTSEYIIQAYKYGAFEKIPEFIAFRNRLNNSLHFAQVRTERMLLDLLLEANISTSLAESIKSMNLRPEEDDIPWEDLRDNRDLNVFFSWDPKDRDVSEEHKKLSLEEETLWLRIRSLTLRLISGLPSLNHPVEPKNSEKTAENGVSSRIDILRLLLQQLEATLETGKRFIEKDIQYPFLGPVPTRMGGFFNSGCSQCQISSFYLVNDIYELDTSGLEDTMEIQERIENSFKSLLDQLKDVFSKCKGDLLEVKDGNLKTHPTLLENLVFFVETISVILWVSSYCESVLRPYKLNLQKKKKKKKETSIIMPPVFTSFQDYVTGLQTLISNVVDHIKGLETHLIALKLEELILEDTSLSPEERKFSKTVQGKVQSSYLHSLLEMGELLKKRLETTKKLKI
# UniProt Q9NVZ3: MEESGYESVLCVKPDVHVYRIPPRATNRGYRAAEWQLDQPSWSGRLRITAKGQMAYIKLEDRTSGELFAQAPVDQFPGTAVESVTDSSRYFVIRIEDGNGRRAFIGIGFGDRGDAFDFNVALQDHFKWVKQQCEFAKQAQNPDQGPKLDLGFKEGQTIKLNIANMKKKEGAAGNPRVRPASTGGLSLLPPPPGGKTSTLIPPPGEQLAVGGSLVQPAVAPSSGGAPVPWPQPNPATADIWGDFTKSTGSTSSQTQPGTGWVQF
# This is one part of the list.
# Columns and labels:
# Assay in all cases: log2 fold change, soluble protein after heating vs DMSO (PISA); higher = thermal stabilisation; K562 cells, 10 uM, 30 min; active = over 0.2 and 3.5 SD of the protein, either way, in both replicates (recomputed)
# bafetinib = compound: Cc1ccc(NC(=O)c2ccc(CN3CC[C@H](N(C)C)C3)c(C(F)(F)F)c2)cc1Nc1nccc(-c2cncnc2)n1 [bafetinib]
# Outline: (§1)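 K562 cells (2×10^6 cells/mL) were treated with 10 μM compound for 30 min, and aliquots were heated for 3 min over 48°C-58°C. Pooled aliquots were extracted in PBS with 0.5% NP-40 at 4°C, and the supernatant after 21,000xg for 90 min was measured by TMTpro 16plex LC-MS/MS with channel sums equalised. Reported thermal stability, relative to control samples and from duplicates, is a log2 fold change.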
# [1] = compound: Cc1cccc(CC(=O)N2CCc3c2ccc(-c2cn(C)c4ncnc(N)c24)c3F)n1
# Outline: as §1
# nilotinib = compound: Cc1cn(-c2cc(NC(=O)c3ccc(C)c(Nc4nccc(-c5cccnc5)n4)c3)cc(C(F)(F)F)c2)cn1 [nilotinib]
# Outline: as §1
# [2] = compound: Cc1nc(Nc2n[nH]c3c2CN(C(=O)N[C@H](CN(C)C)c2ccccc2)C3(C)C)c2sccc2n1
# Outline: as §1
# dasatinib = compound: Cc1nc(Nc2ncc(C(=O)Nc3c(C)cccc3Cl)s2)cc(N2CCN(CCO)CC2)n1 [dasatinib]
# Outline: as §1
# [3] = compound: Cc1ncc(-c2ccnc(Nc3ccc(S(C)(=O)=O)cc3)n2)n1C(C)C
# Outline: as §1
# [4] = compound: Cn1cc(-c2ccc3c(c2)CCN3C(=O)Cc2cccc(C(F)(F)F)c2)c2c(N)ncnc21
# Outline: as §1
# [5] = compound: Cn1cc(-c2ccc3nnc(C(F)(F)c4ccc5ncccc5c4)n3n2)cn1
# Outline: as §1
# tipifarnib = compound: Cn1cncc1[C@@](N)(c1ccc(Cl)cc1)c1ccc2c(c1)c(-c1cccc(Cl)c1)cc(=O)n2C [tipifarnib]
# Outline: as §1
# mubritinib = compound: FC(F)(F)c1ccc(/C=C/c2nc(COc3ccc(CCCCn4ccnn4)cc3)co2)cc1 [mubritinib]
# Outline: as §1
# [6] = compound: NC(=O)Nc1cc(-c2cccc(F)c2)sc1C(=O)N[C@H]1CCCNC1
# Outline: as §1
# [7] = compound: NC(=O)c1cnc(N[C@@H]2CCCC[C@@H]2N)nc1Nc1cccc(-n2nccn2)c1
# Outline: as §1
# [8] = compound: NC1(c2ccc(-c3nc4ccn5c(=O)[nH]nc5c4cc3-c3ccccc3)cc2)CCC1
# Outline: as §1
# [9] = compound: NCC(=O)Nc1ccc(-n2nc(C(F)(F)F)cc2-c2ccc3c(ccc4ccccc43)c2)cc1
# Outline: as §1
# entinostat = compound: Nc1ccccc1NC(=O)c1ccc(CNC(=O)OCc2cccnc2)cc1 [entinostat]
# Outline: as §1
# vorinostat = compound: O=C(CCCCCCC(=O)Nc1ccccc1)NO [vorinostat]
# Outline: as §1
# citarinostat = compound: O=C(CCCCCCNC(=O)c1cnc(N(c2ccccc2)c2ccccc2Cl)nc1)NO [citarinostat]
# Outline: as §1
# silmitasertib = compound: O=C(O)c1ccc2c(c1)nc(Nc1cccc(Cl)c1)c1ccncc12 [silmitasertib]
# Outline: as §1
# [10] = compound: O=C1NC(=O)C(c2cnc3ccccn23)=C1c1cn2c3c(cc(F)cc13)CN(C(=O)N1CCCCC1)CC2
# Outline: as §1
# [11] = compound: c1cc(OCCN2CCCCC2)cc(-c2n[nH]c3ccc(-c4nnc[nH]4)cc23)c1
# Outline: as §1
Target,log2 fold change (bafetinib),log2 fold change [1],log2 fold change (nilotinib),log2 fold change [2],log2 fold change (dasatinib),log2 fold change [3],log2 fold change [4],log2 fold change [5],log2 fold change (tipifarnib),log2 fold change (mubritinib),log2 fold change [6],log2 fold change [7],log2 fold change [8],log2 fold change [9],log2 fold change (entinostat),log2 fold change (vorinostat),log2 fold change (citarinostat),log2 fold change (silmitasertib),log2 fold change [10],log2 fold change [11]
NCAPD2 (UniProt Q15021),inactive: 0.03,inactive: 0.045,inactive: -0.078,inactive: -0.071,inactive: -0.159,inactive: 0.08,inactive: -0.035,inactive: 0.018,inactive: -0.148,inactive: 0.033,inactive: -0.109,inactive: -0.075,inactive: -0.149,inactive: -0.045,inactive: 0.084,inactive: 0.058,inactive: 0.078,inactive: 0.135,inactive: 0.014,inactive: -0.002
NDC1 (UniProt Q9BTX1),inactive: -0.128,inactive: 0.016,inactive: 0.002,inactive: -0.002,inactive: 0.02,inactive: -0.015,inactive: 0.016,inactive: 0.05,inactive: -0.018,inactive: 0.024,inactive: -0.074,inactive: -0.026,inactive: -0.019,inactive: -0.079,inactive: 0.004,inactive: 0.021,inactive: -0.01,inactive: -0.015,inactive: -0.139,inactive: 0.003
"NAA15, A0A0B4J1W3",inactive: -0.04,inactive: 0.042,inactive: -0.083,inactive: 0.079,inactive: 0,inactive: -0.074,inactive: -0.001,inactive: -0.043,inactive: 0.007,inactive: -0.133,inactive: 0.111,inactive: 0.009,inactive: -0.086,inactive: -0.066,inactive: 0.171,inactive: 0.037,inactive: 0.021,inactive: 0.007,inactive: -0.131,inactive: -0.124
NCDN isoform 3 (UniProt Q9UBB6),inactive: -0.009,inactive: -0.021,inactive: -0.108,inactive: -0.101,inactive: -0.152,inactive: 0.002,inactive: -0.028,inactive: 0.018,inactive: 0.018,inactive: 0.128,inactive: 0.024,inactive: -0.023,inactive: -0.124,inactive: -0.017,inactive: -0.005,inactive: -0.026,inactive: 0.026,inactive: 0.15,inactive: -0.075,inactive: -0.021
N6AMT1 (UniProt Q9Y5N5),inactive: 0.026,inactive: 0.051,inactive: 0.004,inactive: 0.014,inactive: 0.013,inactive: 0.028,inactive: 0.05,inactive: 0.079,inactive: 0.025,inactive: 0.053,inactive: -0.032,inactive: -0.019,inactive: -0.02,inactive: -0.022,inactive: 0.136,inactive: -0.033,inactive: 0.036,inactive: -0.007,inactive: -0.023,inactive: 0.016
NCKAP1 isoform 2 (UniProt Q9Y2A7),inactive: -0.028,inactive: 0.08,inactive: -0.016,inactive: -0.045,inactive: -0.096,inactive: -0.04,inactive: 0.04,inactive: -0.004,inactive: -0.005,inactive: 0.002,inactive: 0.066,inactive: -0.009,inactive: -0.12,inactive: -0.025,inactive: 0.024,inactive: 0.063,inactive: 0.015,inactive: -0.029,inactive: -0.055,inactive: 0.046
NCAPG2 isoform 2 (UniProt Q86XI2),inactive: 0.115,inactive: 0.009,inactive: -0.213,inactive: -0.192,inactive: -0.11,inactive: 0.021,inactive: -0.094,inactive: -0.021,inactive: 0.041,inactive: 0.068,inactive: 0.03,inactive: -0.08,inactive: -0.049,inactive: 0.119,inactive: 0.054,inactive: 0.362,inactive: 0.074,inactive: 0.014,inactive: 0.151,inactive: -0.132
NDUFC2 (UniProt O95298),inactive: -0.031,inactive: -0.071,inactive: 0.035,inactive: -0.009,inactive: 0.068,inactive: -0.015,inactive: 0.107,inactive: 0.114,inactive: -0.052,inactive: 0.021,inactive: -0.039,inactive: -0.128,inactive: -0.009,inactive: -0.005,inactive: 0.042,inactive: -0.126,inactive: 0.094,inactive: 0.028,inactive: -0.039,inactive: 0.002
NAA50 (UniProt Q9GZZ1),inactive: -0.042,inactive: 0.06,inactive: -0.003,inactive: -0.055,inactive: -0.011,inactive: 0.033,inactive: 0.036,inactive: 0.011,inactive: -0.053,inactive: -0.079,inactive: 0.007,inactive: 0.035,inactive: -0.028,inactive: 0.008,inactive: 0.044,inactive: 0.049,inactive: 0.072,inactive: -0.012,inactive: -0.032,inactive: 0.014
NEDD1 isoform 3 (UniProt Q8NHV4),inactive: 0.025,inactive: -0.013,inactive: 0.061,inactive: 0.055,inactive: -0.015,inactive: -0.137,inactive: 0.019,inactive: -0.003,inactive: 0.072,inactive: 0.048,inactive: 0.004,inactive: -0.012,inactive: -0.037,inactive: -0.012,inactive: 0.011,inactive: 0.075,inactive: -0.034,inactive: -0.025,inactive: -0.015,inactive: 0.025
NDUFB10 (UniProt O96000),inactive: -0.105,inactive: -0.11,inactive: -0.02,inactive: 0.026,inactive: -0.011,inactive: -0.021,inactive: 0.015,inactive: 0.081,inactive: 0.044,inactive: 0.019,inactive: -0.062,inactive: -0.06,inactive: -0.054,inactive: -0.022,inactive: -0.034,inactive: -0.053,inactive: 0.031,inactive: 0.021,inactive: -0.018,inactive: -0.006
NDUFA11 (UniProt Q86Y39),inactive: -0.073,inactive: -0.052,inactive: -0.094,inactive: 0.026,inactive: 0.034,inactive: -0.015,inactive: 0.016,inactive: -0.004,inactive: 0.071,inactive: 0.017,inactive: -0.034,inactive: -0.003,inactive: -0.073,inactive: -0.057,inactive: -0.003,inactive: 0.046,inactive: 0.025,inactive: 0.006,inactive: 0.052,inactive: -0.075
NDUFA7 (UniProt O95182),inactive: -0.056,inactive: 0.124,inactive: 0.016,inactive: -0.025,inactive: -0.145,inactive: -0.059,inactive: -0.005,inactive: -0.061,inactive: 0.002,active: 0.247,inactive: 0.019,inactive: 0.005,inactive: -0.108,inactive: -0.059,inactive: 0,inactive: 0.012,inactive: 0.008,inactive: -0.037,inactive: -0.047,inactive: -0.039
NDUFB3 (UniProt O43676),inactive: -0.075,inactive: -0.078,inactive: 0.003,inactive: 0.023,inactive: 0.027,inactive: -0.029,inactive: 0.012,inactive: 0.043,inactive: 0.057,inactive: 0.039,inactive: -0.02,inactive: -0.016,inactive: -0.037,inactive: -0.041,inactive: -0.034,inactive: -0.035,inactive: 0.038,inactive: 0.019,inactive: 0.001,inactive: -0.041
NAA25 (UniProt Q14CX7),inactive: -0.029,inactive: 0.014,inactive: -0.021,inactive: -0.018,inactive: -0.056,inactive: -0.049,inactive: 0.111,inactive: 0.006,inactive: -0.002,inactive: 0.004,inactive: -0.012,inactive: -0.065,inactive: -0.108,inactive: -0.047,inactive: -0.008,inactive: 0.04,inactive: 0.047,inactive: -0.005,inactive: 0,inactive: -0.02
NECAP2 (UniProt Q9NVZ3),inactive: 0.009,inactive: 0.052,inactive: 0.045,inactive: -0.07,inactive: -0.081,inactive: -0.023,inactive: 0.038,inactive: -0.007,inactive: -0.112,inactive: 0.083,inactive: -0.029,inactive: 0,inactive: -0.086,inactive: -0.02,inactive: 0.055,inactive: 0.006,inactive: 0.062,inactive: -0.042,inactive: 0,inactive: -0.012

# A portion of the results above, as a working copy:
Target,log2 fold change (bafetinib),log2 fold change [1],log2 fold change (nilotinib),log2 fold change [2],log2 fold change (dasatinib),log2 fold change [3],log2 fold change [4],log2 fold change [5],log2 fold change (tipifarnib),log2 fold change (mubritinib),log2 fold change [6],log2 fold change [7],log2 fold change [8],log2 fold change [9],log2 fold change (entinostat),log2 fold change (vorinostat),log2 fold change (citarinostat),log2 fold change (silmitasertib),log2 fold change [10],log2 fold change [11]
"NAA15, A0A0B4J1W3",inactive: -0.04,inactive: 0.042,inactive: -0.083,inactive: 0.079,inactive: 0,inactive: -0.074,inactive: -0.001,inactive: -0.043,inactive: 0.007,inactive: -0.133,inactive: 0.111,inactive: 0.009,inactive: -0.086,inactive: -0.066,inactive: 0.171,inactive: 0.037,inactive: 0.021,inactive: 0.007,inactive: -0.131,inactive: -0.124
NCDN isoform 3 (UniProt Q9UBB6),inactive: -0.009,inactive: -0.021,inactive: -0.108,inactive: -0.101,inactive: -0.152,inactive: 0.002,inactive: -0.028,inactive: 0.018,inactive: 0.018,inactive: 0.128,inactive: 0.024,inactive: -0.023,inactive: -0.124,inactive: -0.017,inactive: -0.005,inactive: -0.026,inactive: 0.026,inactive: 0.15,inactive: -0.075,inactive: -0.021
N6AMT1 (UniProt Q9Y5N5),inactive: 0.026,inactive: 0.051,inactive: 0.004,inactive: 0.014,inactive: 0.013,inactive: 0.028,inactive: 0.05,inactive: 0.079,inactive: 0.025,inactive: 0.053,inactive: -0.032,inactive: -0.019,inactive: -0.02,inactive: -0.022,inactive: 0.136,inactive: -0.033,inactive: 0.036,inactive: -0.007,inactive: -0.023,inactive: 0.016
NCKAP1 isoform 2 (UniProt Q9Y2A7),inactive: -0.028,inactive: 0.08,inactive: -0.016,inactive: -0.045,inactive: -0.096,inactive: -0.04,inactive: 0.04,inactive: -0.004,inactive: -0.005,inactive: 0.002,inactive: 0.066,inactive: -0.009,inactive: -0.12,inactive: -0.025,inactive: 0.024,inactive: 0.063,inactive: 0.015,inactive: -0.029,inactive: -0.055,inactive: 0.046
